# Reference: paper PMC7000686
# Amino acid sequences for entries named in this document (tags omitted). A change or cut given only in a name is not applied to a line headed by its entry. Chains listed by the source or under a name are the forms on record and can include a tag or linker.
# KIT K642E mutant oncoprotein (GIST882 cells) (human (endogenous in GIST882)) (P10721, form named): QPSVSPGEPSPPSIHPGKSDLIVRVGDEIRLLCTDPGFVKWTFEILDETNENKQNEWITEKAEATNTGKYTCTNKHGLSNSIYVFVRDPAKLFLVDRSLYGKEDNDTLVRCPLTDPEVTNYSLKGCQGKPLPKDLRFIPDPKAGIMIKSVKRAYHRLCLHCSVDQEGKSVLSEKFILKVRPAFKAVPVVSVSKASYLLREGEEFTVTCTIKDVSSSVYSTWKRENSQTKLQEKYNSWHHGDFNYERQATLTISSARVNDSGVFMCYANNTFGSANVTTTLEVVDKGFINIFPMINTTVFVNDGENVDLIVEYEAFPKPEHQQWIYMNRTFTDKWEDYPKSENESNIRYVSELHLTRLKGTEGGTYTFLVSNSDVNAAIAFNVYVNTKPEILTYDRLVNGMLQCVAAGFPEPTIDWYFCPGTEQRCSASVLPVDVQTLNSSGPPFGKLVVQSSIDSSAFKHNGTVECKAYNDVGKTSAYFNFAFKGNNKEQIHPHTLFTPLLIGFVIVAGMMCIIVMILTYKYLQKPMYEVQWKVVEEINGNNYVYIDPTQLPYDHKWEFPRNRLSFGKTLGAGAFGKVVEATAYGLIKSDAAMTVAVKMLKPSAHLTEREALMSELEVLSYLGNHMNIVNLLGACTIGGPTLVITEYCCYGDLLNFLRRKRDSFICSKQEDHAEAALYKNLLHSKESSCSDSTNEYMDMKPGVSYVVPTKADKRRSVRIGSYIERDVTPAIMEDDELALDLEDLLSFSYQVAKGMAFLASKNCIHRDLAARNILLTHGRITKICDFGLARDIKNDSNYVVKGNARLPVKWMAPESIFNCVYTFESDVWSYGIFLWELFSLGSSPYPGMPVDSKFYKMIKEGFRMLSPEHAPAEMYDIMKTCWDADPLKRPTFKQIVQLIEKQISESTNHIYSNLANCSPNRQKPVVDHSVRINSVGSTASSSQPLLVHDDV
# No constants are given. Whether binding was seen depends on the method and setting. In cells and extracts the contact can be indirect. Some entries that bind do so weakly or less than the wild type.
# T1: CDC37 (cell division cycle 37) (human (endogenous in GIST882 and GIST430/654)) (UniProt Q16543)
# T1 sequence: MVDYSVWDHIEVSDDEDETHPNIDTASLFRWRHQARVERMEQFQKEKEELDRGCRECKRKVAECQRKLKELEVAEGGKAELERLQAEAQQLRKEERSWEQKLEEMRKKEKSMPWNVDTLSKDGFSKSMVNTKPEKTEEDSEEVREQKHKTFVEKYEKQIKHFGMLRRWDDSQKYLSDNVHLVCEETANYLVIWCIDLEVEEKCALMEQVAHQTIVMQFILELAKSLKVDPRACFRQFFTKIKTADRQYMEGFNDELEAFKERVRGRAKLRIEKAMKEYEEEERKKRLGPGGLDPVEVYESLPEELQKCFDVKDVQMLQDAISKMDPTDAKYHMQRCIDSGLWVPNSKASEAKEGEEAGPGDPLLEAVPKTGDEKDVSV
# B1: CDC37 (cell division cycle 37) (protein, UniProt Q16543 1-378)
# chain: T1 sequence
# Columns and labels:
# [1] = target: T1, CDC37 (cell division cycle 37) (human (endogenous in GIST882 and GIST430/654)); assay: co-IP; endogenous KIT or CDC37 precipitated with mouse monoclonal antibody and protein G beads from 1 mg lysate (1% NP-40 IP buffer, 4 °C) of GIST882 and GIST430/654 cells treated with DMSO for 6 h in serum-free medium; immunoblot for HSP90, KIT and CDC37
# [2] = target: KIT K642E mutant oncoprotein (GIST882 cells) (human (endogenous in GIST882)) (UniProt P10721); assay: as above
Molecule,binding [1],binding [2]
KIT K642E mutant oncoprotein (GIST882 cells) (from UniProt P10721 26-976) (receptor),binds,
B1,,binds
